From patent US8802631B2, “Peptides and methods for the treatment of gliomas and other cancers” (Ludwig Institute for Cancer Research Ltd., priority 2007, dated 2014)
Some of these results come from one statement about several compounds together.

Tested on: A172 cells
Experiment: Trypan Blue cell viability assay in A172 cells
Format: cell-based, human
Conditions: treatments as in thymidine assay, 24 hr

For `O=c1cc(N2CCOCC2)oc2c(-c3ccccc3)cccc12` [LY294002], the cell viability was “higher than 95%”.
